Measured values: US20120266268A1
No constants are given. Whether binding was seen depends on the method and setting. Some entries that bind do so weakly or less than the wild type.

Chains of the proteins cited; added tags and fusions are not shown. Lines headed by an entry give the natural chain unless they say otherwise; changes in a name come on top.
UniProt Q9C9K7: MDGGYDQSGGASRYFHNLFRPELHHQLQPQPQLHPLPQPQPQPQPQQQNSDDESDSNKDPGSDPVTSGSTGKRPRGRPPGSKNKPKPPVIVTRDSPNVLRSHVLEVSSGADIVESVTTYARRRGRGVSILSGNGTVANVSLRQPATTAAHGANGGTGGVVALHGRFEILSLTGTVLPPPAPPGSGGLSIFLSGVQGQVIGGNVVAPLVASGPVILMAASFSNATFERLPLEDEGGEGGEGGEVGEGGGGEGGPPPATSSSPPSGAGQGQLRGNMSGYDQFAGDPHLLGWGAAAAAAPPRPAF
UniProt Q9S7C9: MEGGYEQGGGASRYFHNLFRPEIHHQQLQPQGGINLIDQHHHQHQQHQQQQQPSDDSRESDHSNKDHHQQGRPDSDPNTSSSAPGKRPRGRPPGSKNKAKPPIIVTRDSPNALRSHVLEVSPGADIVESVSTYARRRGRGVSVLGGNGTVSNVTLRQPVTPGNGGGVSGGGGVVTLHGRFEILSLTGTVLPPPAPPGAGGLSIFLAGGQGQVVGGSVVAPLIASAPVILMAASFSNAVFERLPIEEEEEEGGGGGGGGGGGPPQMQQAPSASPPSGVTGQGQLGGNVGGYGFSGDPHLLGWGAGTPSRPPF

Assays:
Assay in all cases: BiFC (split YFP), onion epidermal cells
[1] = target: sob3-6 protein (Arabidopsis thaliana SOB3 with R77>H in the AT-hook core) (Arabidopsis thaliana) (UniProt Q9C9K7)
[2] = target: Arabidopsis thaliana SOB3 (SUPPRESSOR OF PHYTOCHROME B-4 #3) protein (Arabidopsis thaliana) (UniProt Q9C9K7)
[3] = target: Arabidopsis thaliana ESC (ESCAROLA) protein (Arabidopsis thaliana) (UniProt Q9S7C9)

Measured: binding

sob3-6 protein (Arabidopsis thaliana SOB3 with R77>H in the AT-hook core) (from UniProt Q9C9K7 1-302)
binds: [1] | [2] | [3]
